Test results: patent US6794509B1, “Compounds for fluorescence labeling” (Fuji Photo Film Co., Ltd., priority 1999, dated 2004)
Some results were stated once for a whole list of compounds, not compound by compound. At least one compound was matched to its structure with a doubt left.

Test: Evaluation of aggregation characteristic (absorption spectrum patterns in buffers and salt solution)
Format: physicochemical
Settings: 50 mM Tris-HCl buffer (pH 8.0), 4×SSC, 1 M Church-phosphate buffer (pH 7.2), 1 M aqueous sodium chloride

Aggregation characteristic (absorption spectrum pattern), absolutely free from aggregation:
CC(CC[n+]1cc(C#Cc2ccc(N(CCCS(=O)(=O)[O-])S(C)(=O)=O)cc2)cc2c1N=C(/C=C/C=C1\N=C3C(=CC(C#Cc4ccc(N(CCCS(=O)(=O)[O-])S(C)(=O)=O)cc4)=CN3CCCCCC(=O)O)C1(C)C)C2(C)C)S(=O)(=O)[O-].[K+].[K+] (stereo not drawn) [Compound I-11]
CC1(C)C2=CC(C#Cc3cccc(N(CCCS(=O)(=O)[O-])S(C)(=O)=O)c3)=CN(CCCCCC(=O)O)C2=N/C1=C\C=C\C1=Nc2c(cc(C#Cc3cccc(N(CCCS(=O)(=O)[O-])S(C)(=O)=O)c3)c[n+]2CCCS(=O)(=O)[O-])C1(C)C.[K+].[K+] [Compound I-12]
CC(CCN1C=C(C#Cc2ccc(N(CCCS(=O)(=O)[O-])S(C)(=O)=O)cc2)C=C2C1=N/C(=C\C=C\C1=Nc3c(cc(C#Cc4ccc(N(CCCCCC(=O)O)S(C)(=O)=O)cc4)c[n+]3CCC(C)S(=O)(=O)[O-])C1(C)C)C2(C)C)S(=O)(=O)[O-].[K+].[K+] (stereo not drawn) [Compound I-13]
